Laboratory results: PubChem BioAssay AID504774 (Drosophila RNAi Screening Center, 2011)
Purpose: 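Fly genes whose loss alters survival after alkylation damage to DNA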 (primary screen). Cells: Drosophila Kc167 cells. Knock-down reagent: long dsRNA against Drosophila genes, about 0.25 µg dsRNA per well. Time to read-out: about 6 days: 3 days knock-down, then 3 days with or without MMS. Treatment: methyl methanesulphonate 0.004% (w/v) for 3 days after knock-down. Detection: 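Viability in wells given MMS, read as ATP luminescence, normalised by quantiles plate by plate and averaged across replicates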. Reading the numbers: mean viability with MMS: higher = more surviving cells after MMS.
The screen tested about 23,000 reagents; below is a random part of those with a known target gene and a result. 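Values are quantile-normalised luminescence on an arbitrary scale; higher means more cells surviving MMS.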 Reagents against one gene are numbered here. Names joined by + are all predicted targets of the reagent. Not all columns of the deposit are shown. No sequences are given here.

grass | mean viability with MMS: 3.69e6
Cep89 | mean viability with MMS: 3.46e6
CCT7 | mean viability with MMS: 3.29e6
CG2901 | mean viability with MMS: 3.73e6
alpha-Catr | mean viability with MMS: 3.47e6
Camta #1 | mean viability with MMS: 3.45e6
Camta #2 | mean viability with MMS: 3.53e6
Camta #3 | mean viability with MMS: 3.64e6
Camta #4 | mean viability with MMS: 3.66e6
Camta #5 | mean viability with MMS: 3.42e6
Septin1 | mean viability with MMS: 3.62e6
Myb | mean viability with MMS: 3.37e6
CG3349 | mean viability with MMS: 3.75e6

3 of these entries, reformatted:
{"gene": "Camta", "dsRNA no.": 1, "mean viability with MMS": 3.45e6}
{"gene": "Camta", "dsRNA no.": 2, "mean viability with MMS": 3.53e6}
{"gene": "Camta", "dsRNA no.": 3, "mean viability with MMS": 3.64e6}

The results go on.
CG31115 | mean viability with MMS: 3.46e6
CG30487 | mean viability with MMS: 3.61e6
CG4053 | mean viability with MMS: 3.53e6
ctrip #1 | mean viability with MMS: 3.19e6
ctrip #2 | mean viability with MMS: 3.07e6
ctrip #3 | mean viability with MMS: 2.86e6
CG6984 | mean viability with MMS: 3.59e6
Or1a | mean viability with MMS: 3.57e6
CG32115 | mean viability with MMS: 3.64e6
CG42710 | mean viability with MMS: 3.46e6
CG10257 | mean viability with MMS: 3.54e6
Trs31 | mean viability with MMS: 3.59e6
CG7102 #1 | mean viability with MMS: 3.79e6
CG7102 #2 | mean viability with MMS: 3.49e6
yip3 | mean viability with MMS: 3.34e6
CG30288 | mean viability with MMS: 3.81e6
Smvt | mean viability with MMS: 3.59e6
HP1c | mean viability with MMS: 3.67e6
CR40354 | mean viability with MMS: 2.25e6
GstE14 | mean viability with MMS: 3.61e6
CG15386 + CG42371 | mean viability with MMS: 3.64e6
Cox11 | mean viability with MMS: 3.46e6
